PubChem BioAssay AID1224830 | NIAID – 2016
Test: 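Genes whose knock-down alters the TNF-alpha reporter response to LPS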 (primary screen). Cells: human THP-1 monocytic leukaemia cells, TNF dual-luciferase reporter clone, PMA-differentiated to macrophage-like cells. Reagents: siRNA pool against human genes, 50 nM. Time to read-out: LPS for 4 h, given about 3 days after siRNA transfection. Conditions: bacterial LPS (TLR4 ligand), 10 ng/ml. Measurement: 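TNF firefly reporter luminescence divided by renilla, normalised to the plate median, then turned into a robust z-score for each replicate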. Reading the numbers: TNF reporter robust z-score: higher = stronger TNF reporter response to LPS. Hit rule: 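a well is active when its z-score exceeds 2.8 or falls below -1.5; control wells carry no call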.
The deposit covers about 18,000 reagents; this is a random part of them. In the full data, about 2,900 (16%) were called active. 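Calls are made per well; low scores hint the gene aids the LPS response, high scores that it dampens it.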 Entries without a mark were called inactive. Repeated entries: four replicate wells of each siRNA pool.

gene symbol	TNF reporter robust z-score
PRPSAP1	0.15
PRPSAP1	0.3
PRPSAP1	0.71
PRPSAP1	1.19
CKS2	-0.6
CKS2	-0.7
CKS2	0.45
CKS2	-0.77
HCFC1	-0.89
HCFC1	-1.83 (active)
HCFC1	-0.67
HCFC1	-0.11
NMU	1.02
NMU	0.75
NMU	-0.14
NMU	0.62
SPO11	0.32
SPO11	1.76
SPO11	1.45
EIF5A	0.4
EIF5A	0.78
EIF5A	-1.15
EIF5A	2.07
ZSCAN10	1.25
ZSCAN10	0.57
ZSCAN10	2.73
ZSCAN10	1.87
DNAJB4	-0.35
DNAJB4	1.46
DNAJB4	0.44
DNAJB4	1.4
GGNBP2	-0.7
GGNBP2	-0.67
GGNBP2	-0.4
GGNBP2	-0.54
CRNN	-0.7
CRNN	-0.94
CRNN	-1.28
CRNN	-1.27
H2BC8	0
H2BC8	0.82
H2BC8	-1.01
H2BC8	0.55
F13A1	1.01
F13A1	-0.91
F13A1	-0.54
F13A1	-0.17
ABHD16B	1.74
ABHD16B	1.28
ABHD16B	0.53
ABHD16B	0.36
DNAJB12	-0.04
DNAJB12	0.48
DNAJB12	-1.1
DNAJB12	0.21
IRAG2	1.81
IRAG2	0.46
IRAG2	0.9
IRAG2	-0.1
TYROBP	-0.26
TYROBP	-0.2
TYROBP	-1.32
TYROBP	1.18
ARMCX5	-0.74
ARMCX5	-0.09
ARMCX5	0.14
ARMCX5	-1
MYT1L	0.49
MYT1L	0.57
MYT1L	0.6
MYT1L	1.26
PRKY	-0.28
PRKY	0.75
PRKY	0.6
PRKY	0.98
BNIPL	-1.23
BNIPL	-0.2
BNIPL	-0.19
BNIPL	-0.66
APOB	-1.27
APOB	-0.95
APOB	-1.53 (active)
APOB	-1.14
SDC2	0.8
SDC2	-0.27
SDC2	-0.76
SDC2	-0.04
ERV3-1	2.04
ERV3-1	0.57
ERV3-1	1.91
ERV3-1	2.11
STARD4	-1.46
STARD4	-0.35
STARD4	-0.43
ACAA2	-1.11
ACAA2	-0.62
ACAA2	1.4
ACAA2	1.17
ENAM	0.25
ENAM	0.28
ENAM	0.1
ENAM	0.4
TMPRSS5	1.1
TMPRSS5	0.31
TMPRSS5	2.19
TMPRSS5	0.5
MST1	0.01
MST1	0.32
MST1	0.57
MST1	0.09
